PubChem BioAssay AID651640 (Broad Institute, 2012)
“And” between values parts separate entries of the source, which are not always exact repeats. Equal values may be shown once. In all, about 350,000 compounds went through this assay and about 6,000 (1.7%) were called active. Inconclusive results, whose numbers are uncertain, are shown with a selection of clear calls. Cut-off read from the data, not from the text of the source: active = CPE inhibition above about 20% (passing the limit was not always enough); inconclusive = no clear call, values can overlap the other calls; tested in BHK-21 cells.

Test: protection of cells from dengue 2 killing – plate reader, single concentration, primary screen (AID 651640);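 note: 0% = median of neutral control wells and 100% = median of positive control wells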
Conditions: DENV2-infected cells, cytopathic effect rescue, at 9.99 µM, stronger effect = higher value

| SMILES | CPE inhibition |
| --- | --- |
| Cc1ccc(S(=O)(=O)N(C)C[C@@H]2OCCCC[C@H](C)Oc3ccc(NC(=O)Nc4ccc5c(c4)OCO5)cc3C(=O)N([C@@H](C)CO)C[C@H]2C)cc1 | inactive: 3.36% |
| C[C@@H]1CN([C@H](C)CO)C(=O)c2cc(NC(=O)Cc3ccccc3)ccc2O[C@H]1CN(C)C(=O)Nc1cccc2ccccc12 | inactive: -2.19% |
| Cc1cccc(NC(=O)NNC(=O)COc2ccc([N+](=O)[O-])cc2)c1C | inconclusive: 33.5% |
| COc1ccccc1-c1cnc2c(c1)C(=O)N([C@H](C)CO)C[C@@H](C)[C@H](CN(C)Cc1cncnc1)O2 | inconclusive: 45.8% |
| C[C@H]1CN([C@@H](C)CO)C(=O)c2cc(-c3ccc(F)cc3)cnc2O[C@H]1CN(C)CC1CCOCC1 | inconclusive: 11.7% |
| Cc1ccc(S(=O)(=O)Nc2ccc3c(c2)C(=O)N([C@@H](C)CO)C[C@H](C)[C@@H](CN(C)C(=O)c2ccccc2)OCCCC[C@@H](C)O3)cc1 | inactive: -3.81% |
| Cc1ccc(C)c(-n2nnnc2SCC(=O)NCC2CCCO2)c1 (centres undefined) | inconclusive: 24.9% |
| CC1CCCC(NC(=O)CSc2ncccn2)C1C (centres undefined) | inconclusive: 47.7% |
| C[C@@H]1CCCCO[C@@H](CN(C)C)[C@H](C)CN([C@H](C)CO)C(=O)c2cc(NC(=O)Nc3ccccc3)ccc2O1 | inactive: -3.68% |
| O=C(Cn1c2[n+](c3ccccc31)CC(O)CS2)c1ccccc1 (centres undefined) | active: 57.8% |
| CC=Cc1ccc2n(c1=O)C[C@H]1[C@H](CO)[C@@H](C(=O)N(C)C)N(Cc3cccc(F)c3)[C@@H]21 (mixture of isomers) | active: 55.7% |
| Cc1nc2ccn(Cc3ccccc3)c(=O)c2cc1C(=O)N1CCN(c2ccccc2)CC1 | active: 25.6% |
| O=C(NCCc1ccncc1)[C@@H]1[C@@H](CO)[C@@H]2Cn3c(ccc(-c4cccc(F)c4)c3=O)[C@H]1N2 | active: 84.7% |
| COCc1[nH]c(=S)c(C#N)cc1C(=O)OC | inconclusive: 26.1% |
| CCOC=C1C(=O)N(C(C)=O)c2cc(OC)c(OC)cc21 | inactive: 5.18% |
| COc1ccc(-c2c(C#Cc3ccsc3)c3cc(-c4ccc5cc[nH]c5c4)ccc3n2C)cc1 | inconclusive: 22.8% |
| CC(C)CC(NC(N)=O)C(=O)NCCc1ccc(Cl)cc1Cl (centres undefined) | inconclusive: 24.3% |
| Cc1ccc(OCC(=O)N/N=C2\CC(=O)CC(C)(C)C2)c(Br)c1 | inconclusive: 49.5% |
| CCCCN(c1ccccc1)S(=O)(=O)c1cccc(C(=O)Nc2c(C)n(C)n(-c3ccccc3)c2=O)c1 | inactive: -11.8% |
| CC(C)NC(=O)NCC[C@H]1CC[C@@H](NS(=O)(=O)c2ccccc2)[C@H](CO)O1 | inconclusive: 7.49% |
| C[C@@H]1CCCCO[C@@H](CN(C)S(C)(=O)=O)[C@H](C)CN([C@@H](C)CO)C(=O)c2cc(NC(=O)C3CCCCC3)ccc2O1 | inconclusive: 79.8% |
| COc1ccc(CN2C[C@H](O)COC[C@@H]3O[C@H](CC(=O)NCc4ccncn4)CC[C@H]32)cc1 | inconclusive: 36.9% and inactive: 7.49% |
| c1ccc(NC2=NCCN2CCC2CCCC2)cc1 | inconclusive: 88.8% |

Three structures from above, arranged by molar mass, descending:

| SMILES | CPE inhibition |
| --- | --- |
| Cc1ccc(S(=O)(=O)N(C)C[C@@H]2OCCCC[C@H](C)Oc3ccc(NC(=O)Nc4ccc5c(c4)OCO5)cc3C(=O)N([C@@H](C)CO)C[C@H]2C)cc1 | inactive: 3.36% |
| C[C@@H]1CN([C@H](C)CO)C(=O)c2cc(NC(=O)Cc3ccccc3)ccc2O[C@H]1CN(C)C(=O)Nc1cccc2ccccc12 | inactive: -2.19% |
| c1ccc(NC2=NCCN2CCC2CCCC2)cc1 | inconclusive: 88.8% |

(cont.)

| SMILES | CPE inhibition |
| --- | --- |
| CSc1ncc(C(=O)O)c(C)n1 | inactive: -1.05% |
| CCN(CC)S(=O)(=O)c1ccc(N/N=C(\C)c2ccc(OC)cc2O)nc1 | inactive: -0.239% |
| COc1ccc(NC(=O)[C@@H]2CC=C[C@@H]3CCN(Cc4ccccc4)C(=O)[C@@H]32)cc1 | active: 25.2% |
| C[C@H](CO)N1C[C@H](C)[C@@H](CN(C)Cc2ccc(C(=O)O)cc2)Oc2c(NC(=O)Nc3ccccc3)cccc2C1=O | active: 30.3% |
| Cc1ccccc1NC(=O)Nc1nc(C(N)C2CCCCC2)cs1 (centres undefined) | inconclusive: 35.5% |
| C[C@@H]1CN([C@@H](C)CO)C(=O)c2cc(-c3ccccc3)cnc2O[C@@H]1CN(C)C(=O)c1ccccc1F | inconclusive: 52.4% |
| COc1ccc(N2CCN(CC(O)COc3ccc(F)cc3)CC2)cc1 (centres undefined) | active: 51.9% |
| CN(C)C(=O)C(CCN1CCC(O)(c2ccc(Cl)cc2)CC1)(c1ccccc1)c1ccccc1 | inconclusive: 21.9% |
| Cc1ccc(S(=O)(=O)Nc2ccc3c(c2)CC(=O)N([C@H](C)CO)C[C@H](C)[C@H](CN(C)C(=O)Nc2ccccc2)O3)cc1 | inactive: -0.31% |
| CCCC(=O)Nc1ccc2c(c1)C(=O)N(C)[C@@H]1CC[C@@H](CC(=O)NCc3ccccc3)O[C@@H]1CO2 | inconclusive: 40.6% |
| CN1CCN(C(=O)C[C@H]2CC[C@H]3[C@@H](COC[C@H](O)CN3Cc3ccc4c(c3)OCO4)O2)CC1 | active: 56% |
| COc1cc(-c2cnc3c(NC=O)cc(-c4ccc(C)cc4)cn23)cc(OC)c1OC | active: 94.6% |
| O=C(Cc1ccccc1)N1CC(=O)N2[C@H](C1)[C@@H](c1ccc(-c3cccc(F)c3)cc1)[C@@H]2CO | inactive: 2.23% |
| Cc1ccc(S(=O)(=O)N(C)C[C@@H]2OCCCC[C@H](C)Oc3ccc(NS(=O)(=O)c4ccc(Cl)cc4)cc3C(=O)N([C@H](C)CO)C[C@H]2C)cc1 | inconclusive: 42.7% |
| OC[C@@H]1[C@@H](c2ccc(Br)cc2)[C@H]2CN(Cc3ccccn3)CCCCN12 | inconclusive: 78.8% |
| C[C@@H]1CN([C@H](C)CO)C(=O)c2cccc(N(C)C)c2O[C@H]1CN(C)Cc1ccncc1 | active: 20.2% |
| COCCn1c(C)cc(C(=O)CSc2nc3ccccc3c(=O)n2Cc2ccco2)c1C | active: 22.9% |
| O=C(NC1CCN(Cc2ccccc2)CC1)c1ccccc1NS(=O)(=O)c1ccc(F)c(F)c1 | inconclusive: 63.9% |
| CCCNC(=O)N1C[C@@H](O)COC[C@@H]2O[C@H](CC(=O)OC)CC[C@H]21 | inactive: 11.8% |
| COc1ccc(S(=O)(=O)Nc2ccc3c(c2)C(=O)N([C@H](C)CO)C[C@H](C)[C@H](CN(C)C(=O)Nc2ccc(C(F)(F)F)cc2)OCCCC[C@H](C)O3)cc1 | active: 75.7% |
| CC(C)C#Cc1ccc2c(c1)O[C@@H](CN(C)C(=O)c1cccc(F)c1)[C@H](C)CN([C@@H](C)CO)S2(=O)=O | inactive: 6.44% |
| COc1ccc(S(=O)(=O)N2[C@@H]3CNC[C@H]2C3c2ccc(-c3ccncc3)cc2)cc1 (some centres undefined) | inconclusive: 25% |
| O=C(CNC(=O)c1ccc(Br)o1)Nc1ncccc1O | inconclusive: 41.2% |

| SMILES | CPE inhibition |
| --- | --- |
| COCc1cn(CC[C@H]2CC[C@@H](NC(=O)c3ccncc3)[C@@H](CO)O2)nn1 | inactive: 12.7% |
| C[C@H](CO)N1C[C@H](C)[C@H](CN(C)Cc2ccccc2C(F)(F)F)OCc2ccccc2-c2c(n(C)c3ccccc23)C1=O | active: 26.4% |
| CN(C)CC(=O)Nc1ccc2c(c1)[C@@H]1C[C@H](CC(=O)NCC3CC3)O[C@H](CO)[C@@H]1O2 | inconclusive: 26.5% |
| C[C@H]1CCCCO[C@@H](CN(C)C(=O)C2CCCCC2)[C@@H](C)CN([C@@H](C)CO)C(=O)c2cc(NC(=O)C3CCCCC3)ccc2O1 | inconclusive: 54.4% |
| CCCn1c2ccccc2c2cnn(CC(=O)NCCCN3CCN(c4ccccc4)CC3)c(=O)c21 | inconclusive: 20.1% |
| O=[N+]([O-])c1cccc(/C=N/N=C\c2ccccc2)c1 | inconclusive: 28.7% |
| COc1ccc(CN2C(=O)CCC2(C)c2nnnn2Cc2ccccc2)cc1 (centres undefined) | active: 84.5% |
| O=C(CN1C(=O)NC2(CCCC2)C1=O)Nc1cc(S(=O)(=O)N2CCOCC2)ccc1OCC(F)(F)F | inconclusive: 32% |
| C[C@@H]1CN([C@H](C)CO)C(=O)Cc2cc(NC(=O)Nc3ccc(F)cc3)ccc2O[C@H]1CN(C)S(=O)(=O)c1ccc(Cl)cc1 | active: 21.4% |
| O=C(CCC(=O)N1CCOc2ccccc21)N1CCOCC1 | inconclusive: 25% |
| Cc1ccc(/C=C/C(=O)Nc2nccs2)o1 | inconclusive: 61.3% |
| C[C@H]1CN([C@@H](C)CO)C(=O)c2cc(C3=CCCC3)cnc2O[C@H]1CN(C)C | inactive: 0.404% |
| COc1ccc(CN(C)C[C@@H]2OCCCC[C@H](C)Oc3ccc(NC(=O)Nc4ccc(C(F)(F)F)cc4)cc3C(=O)N([C@@H](C)CO)C[C@H]2C)cc1 | inactive: -4.82% |
| CCC(=O)N1CC2(C1)CN(C(=O)Nc1ccc(F)cc1)[C@H](CO)c1c2c2ccc(OC)cc2n1C | active: 79.8% |
| CN1C(=O)c2cc(NC(=O)C3CCCC3)ccc2OC[C@@H]2O[C@H](CC(=O)NCCc3ccncc3)CC[C@H]21 | inconclusive: 93.3% |
| COc1ccc(CN2CCC[C@]3(N[C@H](c4ccc(C)cc4)[C@@H]4C(=O)N(Cc5ccccc5)C(=O)[C@@H]43)C2=O)cc1 | active: 24.7% |
| COc1ccc(OC)c(N/C(C)=C/C(=O)c2ccncc2)c1 | inactive: -0.262% |
| CCN(CC)c1ccc(/C=N/N2CCN(c3ccccn3)CC2)cc1 | inconclusive: 49% |
| CC(C)(C)[S@](=O)N1Cc2cc(C(=O)NCCN3CCCCC3)nc(-c3cccc(-c4ccc(C#N)cc4)c3)c2[C@@H]1CCO | inconclusive: 34.3% |
| CC(=O)Nc1cccc2c1Cc1cc([N+](=O)[O-])ccc1-2 | inconclusive: 53.2% |
| C[C@H]1CN([C@@H](C)CO)C(=O)c2cc(-c3ccccc3F)cnc2O[C@H]1CN(C)C(=O)c1cnccn1 | inactive: 2.88% |
| C[C@@H]1CN([C@H](C)CO)C(=O)c2cc(-c3cccnc3)cnc2O[C@@H]1CN(C)C(=O)c1ccccc1F | inactive: 2% |
| CC[N+](CC)(CC)CCOc1ccc(/C=C/c2ccccc2)cc1 | inactive: -5.46% |
